{"source": "patent US20110124614A1", "about": "“Methods And Compositions For The Treatment of Autoimmune Disorders” (priority 2008, published 2011)", "system": "endogenous steroid hormones (E2, progesterone, testosterone, corticosteroid) in sera", "assay": "Serum endogenous steroid hormone levels after treatment", "format": "in vivo, mouse", "settings": "3.7 mg G-1 (so in the source), FIG. 3", "note": "“Also recorded” adds a separate entry of the source.", "data": [{"smiles": "CC(=O)c1ccc2c(c1)C1C=CCC1C(c1cc3c(cc1Br)OCO3)N2", "note": "(centres unmarked) [G-1]", "values": [{"measurement": "serum level of corticosteroid", "value": "only slightly lowered"}, {"measurement": "serum levels of other steroid hormones (E2, progesterone, testosterone)", "value": "did not change; also recorded: did not affect any of the other steroid hormones tested"}]}]}
